A short description of the assay: qHTS Assay for Lipid Storage Modulators in Drosophila S3 Cells.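 As to cell number change: cells counted by Cell Tracker Red CMTPX staining in the red channel.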 As to conditions: BODIPY lipid droplet fluorescence, 18-24 h; for cell number change: measured here: cell count max response, cells fed with added oleic acid. A digest of the protocol:
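Drosophila S3 cells loaded with oleic acid (400 uM, as added) and compounds at several concentrations; lipid droplets imaged by 488-nm laser-scanning cytometry, 500–530 nm intensity and object ratio to cell channel. Percent activity normalized to 20 uM Triacsin C.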

Setting [1] is: measured here: lipid fluorescence (Fed channel) AC50, cells fed with added oleic acid.
The mark [2] stands for this setting: measured here: cell number channel AC50, cells fed with added oleic acid.

Molecules are shown by their SMILES. Some of the results follow. Shown are side measurements of this screen, not its main read-out; they come without a call. The list favours compounds with an active or inconclusive main result. Words in brackets tell the shape of the fitted curve; partial curves, single points and poor fits give uncertain potencies.

A word on the AC50: it is the midpoint of the concentration-response curve, whichever way the signal moves. Read a high AC50 as weaker potency.

In the case of `COCCCNC(=O)Cn1cc(C(=O)C2CC2)c2ccccc21`, the cell number change was found to be 18.8%. The AC50 under setting [1] is 14.6 µM [rising, single point].
For `Cc1ccc(N2C(=O)N3[C@H]4c5ccccc5OC[C@@H]4[C@@H](c4ccccc4)[C@@]3(C)C2=O)cc1`, the cell number change is 9.06%. For the same compound, the AC50 under setting [1] is 29.1 µM [rising, partial curve].
For `C=CCN([C@@H](CC(C)C)C(=O)OC)S(=O)(=O)N(CC=C)[C@@H](CC(C)C)C(=O)OC`, the cell number change was -37.2%. Under setting [2], the AC50 is 16.4 µM [falling, single point].
On to `CC(C)(C)N=Cc1cc(-c2ccccc2)sc1O`, for which the cell number change is -22.2%. The AC50 under setting [2] is 3.66 µM [falling, full curve, poor fit]. Under setting [1], the AC50 was 3.26 µM [falling, full curve, poor fit].
`O=C(CCN1CCN(Cc2ccccc2)CC1)NNC(=O)Nc1cccc([N+](=O)[O-])c1`: the cell number change is -4.91%. Also, under setting [1], the AC50 is 2.06 µM [rising, full curve, poor fit].
Consider `COc1ccc(Nc2ccc(S(=O)(=O)N3CCCCC3)cc2[N+](=O)[O-])cc1Cl`, for which the cell number change is -45.4%. Further, the AC50 under setting [2] was 29.1 µM [falling, single point]. Also, the AC50 under setting [1] is 23.1 µM [falling, single point].
On to `O=C(Nc1cccc2c1CCCC2)C1CCCN(S(=O)(=O)c2cccc3nonc23)C1` (stereo not drawn), for which the cell number change was 69.1%. In addition, the AC50 under setting [2] is 23.1 µM [rising, partial curve, poor fit].
On to `Cc1oc(C(C)(C)C)cc1C(=O)Nc1cccc(/C=C\C(=O)O)c1`, for which the cell number change was found to be 30.8%. Besides, under setting [2], the half-maximal activity concentration (AC50) is 29.1 µM [rising, single point].
As to `Fc1ccccc1-c1nc(-c2ccccc2)no1`, the cell number change is -27.6%. Moreover, the AC50 under setting [1] was 29.1 µM [falling, single point].
On to `COC(=O)c1ccccc1OCC(=O)NC1CCCCC1`, for which the AC50 under setting [1] is 3.66 µM [rising, partial curve].
For `O=C(Nc1ccccc1N1CCCC1)C1CCN(C(=O)c2ccc(Cl)cc2)CC1`, the cell number change was 50.5%. For the same compound, the AC50 under setting [2] is 1.3 µM [rising, full curve].
In the case of `Cc1ccc(NC(=O)[C@H](Cc2c[nH]c3ccccc23)NC(=O)[C@@H]2Cc3ccccc3CN2)c(C)c1`, the cell number change was 13.4%.
On to `CCOc1ccc(NC(=S)Nc2ccccc2C2CC2)cc1`, for which the cell number change is -31.4%. Also, the AC50 under setting [2] was 18.4 µM [falling, single point]. Further, the half-maximal activity concentration (AC50) under setting [1] was 32.6 µM [falling, single point].
As for `N#CC1=C(N)N(c2ccccc2)C(=O)C1`, the AC50 under setting [2] is 1.64 µM [rising, partial curve, poor fit].
As to `O=S(=O)(c1cccc2nsnc12)N1CCc2ccccc2C1`, the cell number change was found to be 30.5%. The AC50 under setting [2] was 16.4 µM [rising, single point].
As to `CC(C)CN(C(=O)COC(=O)COc1ccc2c(c1)CCC2)c1c(N)n(Cc2ccccc2)c(=O)[nH]c1=O`, the cell number change was -20.3%. Under setting [2], the AC50 was 0.13 µM [falling, full curve, poor fit].
For the compound `COc1cccc(OCC(=O)N(Cc2nc(-c3ccc(Cl)cc3)no2)C(C)C)c1`, the AC50 under setting [1] was 2.06 µM [rising, partial curve].
`CN(C)S(=O)(=O)n1cnc([C@@H]2[C@H]3C(=O)OC[C@@H]3C[C@@]23N=CN(Cc2ccccc2)C3=O)c1`: the cell number change worked out at 4.08%. Also, under setting [2], the AC50 is 0.146 µM [falling, single point].
With `ClC(Cl)(c1nnnn1-c1ccccc1)c1nnnn1-c1ccccc1`, the cell number change was -85.3%. Under setting [2], the AC50 is 23.1 µM [falling, partial curve]. For the same compound, the AC50 under setting [1] is 16.4 µM [falling, partial curve].
Turning to `Cc1ccc(-c2cc(Cc3ccc(N(C)C)cc3)c(=O)[nH]n2)cc1`, the cell number change is -2.17%.
As for `COc1c(C)cc(Br)cc1C(=O)O`, the cell number change was -117%. In addition, under setting [2], the AC50 was 29.1 µM [falling, single point].
Regarding `CCN(CC(=O)Nc1ccc2c(c1)OCCO2)c1nc(-c2cccnc2)nc2ccccc12`, the cell number change is -11.5%. Under setting [1], the AC50 was 4.11 µM [rising, single point].
As for `Fc1ccc2cnc(-c3ccccc3)c(-c3ccc(C(F)(F)F)cc3)c2c1`, the cell number change was -26.1%. Under setting [1], the AC50 was 23.1 µM [falling, single point].
In the case of `CCOC(=O)/C(=N\Nc1ccccc1)S(=O)(=O)c1ccccc1`, the AC50 under setting [2] is 6.51 µM [rising, single point].
Consider `CC1Cc2ccccc2N1CC(=O)Nc1ccc(Cl)c(S(=O)(=O)N(C)C)c1` (stereo not drawn), for which the cell number change worked out at 52.8%. Moreover, under setting [2], the AC50 was 14.6 µM [rising, partial curve, poor fit]. Also, the AC50 under setting [1] is 16.4 µM [rising, partial curve].
Turning to `O=C(COC(=O)CCc1ccc(S(=O)(=O)N2CCOCC2)cc1)NCc1ccc(Cl)cc1`, the cell number change was -28%. Further, the AC50 under setting [2] was 0.326 µM [falling, partial curve, poor fit].
For the compound `CCn1c2ccccc2c2nnc(SCc3cc(=O)n4ccsc4n3)nc21`, the cell number change was -12.4%. The AC50 under setting [1] was 2.59 µM [rising, single point].
As for `O=C(Nc1sc2c(c1C(=O)NCCCO)CCCC2)c1ccccc1`, the cell number change was -45%. Also, the AC50 under setting [2] is 10.3 µM [falling, partial curve, poor fit]. Moreover, the AC50 under setting [1] was 18.4 µM [falling, partial curve, poor fit].
In the case of `COc1ccc(N(C)C(=O)CCS(=O)(=O)c2cccc3nsnc23)cc1`, the AC50 under setting [2] was 0.291 µM [falling, full curve, poor fit].
As for `CCN(CC)S(=O)(=O)c1ccc(OC)c(NC(=O)Cc2cccs2)c1`, the AC50 under setting [1] was 0.0651 µM [rising, full curve, poor fit].
The same measure, in the same setting: the value for `COc1ccc2nc(NC(=O)CSCc3c(C)noc3C)sc2c1` was 23.1 µM [rising, single point].
For `Cc1nc(-c2coc3cc(O)c(C)cc3c2=O)cs1`, the AC50 runs as follows: under setting [2], 1.03 µM [falling, full curve]; under setting [1], 6.51 µM [falling, single point].
On to `Cc1ccccc1NC(=O)C1CCCN(C(=O)NCc2ccccc2)C1` (stereo not drawn), for which the cell number change was found to be 34.9%. In addition, the AC50 under setting [2] is 29.1 µM [rising, single point].
`Cc1cccnc1NC(=O)c1ccc(S(=O)(=O)N2CCCCCC2)cc1`: the cell number change is 50%. The AC50 under setting [2] was 0.164 µM [falling, full curve, poor fit].
With `c1ccc2c(c1)cnc1ccccc12`, the cell number change amounted to 23.4%.
As for `CC1=C(Sc2ccccn2)C(=O)NC(C)(C)C1`, the cell number change is -4.79%. The AC50 under setting [1] was 29.1 µM [falling, single point].
For `CS(=O)(=O)NC1CCN(Cc2ccccc2)CC1`, the cell number change is -1.83%. The AC50 under setting [1] was 14.6 µM [falling, partial curve, poor fit].
Take `CCc1ccc(C(C(=O)NC2CCCC2)N(C(=O)/C=C/C(=O)Nc2cc(C)on2)c2ccccc2C)cc1` (stereo not drawn): under setting [1], the AC50 was 0.82 µM [rising, partial curve].
For `CC1(C)CC(=O)C(N=Nc2cc3c(cc2[N+](=O)[O-])OCCO3)=C(O)C1`, the cell number change is 63.7%. The AC50 under setting [2] is 4.61 µM [rising, full curve].
`Cc1cc(C)c(C)c(S(=O)(=O)N2CCC(C(=O)Nc3ccc(S(=O)(=O)N4CCOCC4)cc3)CC2)c1C`: the cell number change was 48.7%. Moreover, the AC50 under setting [2] is 23.1 µM [rising, single point]. Further, the AC50 under setting [1] was 11.6 µM [falling, partial curve].
With `COc1ccc(OC)c(-c2csc(NC(=O)Cc3ccc(F)cc3)n2)c1`, the cell number change stood at 16.7%. Under setting [1], the AC50 is 29.1 µM [rising, single point].
Turning to `Cc1cc(C(=O)NC2CC(C)(C)Cc3c2cnn3-c2ccc(F)cc2)nn1C` (stereo not drawn), the cell number change is -58.2%. Moreover, the AC50 under setting [2] was 25.9 µM [falling, partial curve].
For `COc1ccc(NC(=O)c2ccc(COCC(F)(F)F)cc2)cc1OC`, the cell number change is 11.7%. Moreover, the AC50 under setting [1] is 4.11 µM [rising, full curve, poor fit].
With `CCn1c(C)cc(/C=C2/NC(=O)N(c3ccccc3)C2=O)c1C`, under setting [2], the AC50 is 6.51 µM [rising, single point].
Turning to `Cc1sc2ncnc(N3CCC(C(=O)N(C)CC(=O)Nc4ccc(Cl)c(C(F)(F)F)c4)CC3)c2c1C`, the cell number change was -40.2%. Also, the AC50 under setting [2] is 9.2 µM [falling, partial curve, poor fit].
Regarding `COc1ccccc1NS(=O)(=O)c1cccc(C(=O)OCC(=O)Nc2cc(C)on2)c1`, the cell number change worked out at 0.279%. Moreover, the AC50 under setting [1] was 0.731 µM [rising, single point].
On to `O=C(O)c1cccc(-c2ccc(/C=N/n3cnnc3)o2)c1`, for which, under setting [1], the AC50 is 29.1 µM [rising, single point].
On to `COc1ccc(COn2nnc3ccc(S(=O)(=O)N4CCOCC4)cc32)cc1F`, for which the cell number change is -75%. Also, under setting [2], the AC50 was 1.84 µM [falling, partial curve, poor fit].
On to `C=CCn1cc(C(=O)N2CCN(C)CC2)c(=O)c2cc(S(=O)(=O)N(CC)CC)ccc21`, for which the cell number change was determined as 20.2%. For the same compound, the AC50 under setting [1] was 0.58 µM [rising, partial curve, poor fit].
For the compound `CCCNC(=O)C(CC)NC(=O)c1ccc(C#N)cc1` (stereo not drawn), the cell number change was -53%. Besides, under setting [2], the AC50 is 29.1 µM [falling, single point].
On to `Cc1ccccc1NC(=O)CSCc1cc(=O)n2ccsc2n1`, for which the cell number change worked out at 43.2%. For the same compound, the AC50 under setting [2] is 29.1 µM [rising, single point].
Consider `COc1ccc(Nc2ncnc3sc(-c4ccccc4)cc23)cc1OC`, for which the cell number change amounted to 43.8%. Further, the AC50 under setting [2] was 13 µM [rising, single point].
For `O=C(O)C1CCN(Cc2cccnc2)CC1`, the cell number change was -11.9%.
In the case of `S=C(NCc1cccs1)Nc1cc(Cl)cc(Cl)c1`, the cell number change is -61.2%. Also, under setting [2], the AC50 is 16.4 µM [falling, single point]. Moreover, the AC50 under setting [1] was 18.4 µM [falling, single point].
In the case of `O=C(Cc1ccc(S(=O)(=O)N2CCCC2)s1)NC1CCCCCC1`, the cell number change stood at 35.7%. The half-maximal activity concentration (AC50) under setting [2] is 9.2 µM [rising, partial curve, poor fit].
As to `COc1ccc2[nH]cc(/C=C/c3cc[n+](C)cc3)c2c1`, the cell number change was -59.9%. For the same compound, the AC50 under setting [2] is 29.1 µM [falling, single point]. Further, the AC50 under setting [1] was 16.4 µM [falling, partial curve].
Consider `O=C(Nc1cc(Cl)ccc1-n1cncn1)c1cc(F)cc(F)c1`, for which the AC50 under setting [2] is 1.84 µM [rising, single point].
